Literature values as cited in PMC11718131 (Communications Biology, 2025).

Biological target: wildtype (WT) CA2
Conditions: read-out: Ki, potency of inhibition of WT CA2 activity; cited from earlier work

CC(=O)Nc1nnc(S(N)(=O)=O)s1 [ACZ, acetazolamide]
Ki: 12 nM
